Assay results as given in PubChem BioAssay AID2685 (National Center for Advancing Translational Sciences (NCATS), 2010).
Out of some 320,000 compounds screened, about 2,100 (0.66%) were called active. The inconclusive results got no clear call from the source; some entries with a clear call stand among them for comparison. The call rests on the fitted dose curve; in most records, active means well fitted inhibition curve with a large enough effect in the signal ratio, with a control signal flat (not every such curve was filed as active); inconclusive means small, poorly fitted or top-dose-only effect, or effect the other way, or a change in a side signal; inactive means flat fitted curve, though single readings scatter; the % refers to the signal ratio. Potencies of inconclusive entries are doubtful fits and often do not repeat.

Experiment: qHTS Assay for Lipid Storage Modulators in Drosophila S3 Cells
Settings: BODIPY lipid droplet fluorescence, 18-24 h, cells fed with added oleic acid; lipid storage change, negative = inhibition: at 46.1 µM (top of the series) unless noted
Method in brief: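 Laser-scanning cytometry quantifies lipid droplet accumulation (500–530 nm total intensity; droplet/cell object ratio) in oleic acid-fed (400 uM added) Drosophila S3 cells treated with a concentration series. 20 uM Triacsin C defined 100% inhibition.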
On the % scale 0 is the no-effect control and ±100 the full control effect; potency means the concentration at half of the fitted maximal effect.

SMILES	lipid storage change, negative = inhibition	Potency
Cc1cc(OCCOc2cccc3cccnc23)c(C)cc1Cl	inconclusive: 4.99%	
O=C(NCC(=O)N1CCN(S(=O)(=O)c2ccc3c(c2)OCCO3)CC1)c1ccccc1Cl	inconclusive: 14.3%	
O=C(CN1CCCCCC1)Nc1cccc(NC(=O)CN2CCCCCC2)c1	inactive	
C[C@H](NC(=O)c1nc[nH]c1C(=O)NCC(=O)OCc1ccccc1)c1ccccc1	inconclusive: -34.6%	
CC(C)c1ccc(O)c(NC(=O)c2cccnc2)c1	inconclusive: -21.1%	
CC(=O)Nc1cccc(-c2cnc3ccccc3n2)c1		inconclusive: 0.259 µM [activator, partial curve, poor fit]
O=C(NC(Cc1ccccc1)C(=O)O)/C(=C\c1cccc([N+](=O)[O-])c1)NC(=O)c1ccco1 (stereo not drawn)	inactive	
O=C(Nn1cnnc1)c1ccc(OC(F)(F)C(F)C(F)(F)F)cc1 (stereo not drawn)	inconclusive: 28.9%	
CC(C)(C)OC(=O)NNC(=O)C12CC3CC(CC(C3)C1)C2	inconclusive: 47.4%	
CSc1nsc(SCC(=O)Nc2cccc(NC(C)=O)c2)n1		inconclusive: 1.03 µM [activator, full curve, poor fit]
NS(=O)(=O)c1ccc(NC(=S)NNC(=O)CCC(=O)Nc2ccccc2Cl)cc1	inconclusive: 22.4%	
Cc1ccc(C(=O)Nc2c(C)cc(C)c3cccnc23)cc1	inconclusive: -19.7%	
O=C(Cc1c(F)cccc1Cl)Nc1ccc(S(=O)(=O)N2CCOCC2)cc1	inconclusive: 33.2%	
CC(=O)Nc1ccc(C(=O)c2ccccc2)cc1		inconclusive: 6.51 µM [activator, single point]
CC(=O)NC1CCN(C(=O)N2CCCC2)CC1	inconclusive: -39%	
CN(C)C1=NCCN1CCc1ccc(F)cc1		inconclusive: 29.1 µM [activator, single point]
COCC(C)n1c(C)cc(C(=O)COC(=O)c2oc3ccccc3c2C)c1C (stereo not drawn)	inconclusive: -15.4%	
COc1ccc(CCNC(=O)c2oc3ccc(S(=O)(=O)N4CCOCC4)cc3c2C)cc1OC		inconclusive: 20.6 µM [falling, partial curve, poor fit]
CCOc1cc(CNCc2ccccc2)ccc1OCC(=O)NC1CCCCC1	inconclusive: -106%	
NC1=NC[C@H](CC2CCCCC2)N1CCc1cc(C(F)(F)F)cc(C(F)(F)F)c1		inconclusive: 29.1 µM [cytotoxic, single point]
CCOC(=O)/C(=C\c1ccc(Cl)cc1)c1nc2sc(C)c(C)c2c(=O)[nH]1	inconclusive: -29.8%	
CS(=O)(=O)c1ccccc1C(=O)Nc1ccc(-c2nc3ccccc3o2)cc1	inconclusive: -60.6%	
O=C(NCc1cccc(Cl)c1)c1cccc(OC2CCN(C(=O)C3CC3)CC2)c1		inconclusive: 29.1 µM [falling, single point]
O=C(CNC(=O)c1ccc(Cl)cc1Cl)OCN1C(=O)c2ccccc2C1=O	inconclusive: 9.06%	
COc1cccc(CNS(=O)(=O)c2ccc3c(c2)NC(=O)CS3)c1	inconclusive: -23.6%	
COc1ccc(CCN2C(=NC(=O)C(C)C)SC3CS(=O)(=O)CC32)cc1OC (stereo not drawn)	inconclusive: 6.97%	

SMILES	lipid storage change, negative = inhibition	Potency
Cc1ccccc1CN1[C@@H]2c3ccccc3C[C@@H]2OCCS1(=O)=O	inconclusive: 0.92%	
C[C@@]12CC(=O)NC1N(C(=O)c1ccccc1)C(c1ccccc1OC(=O)c1ccccc1)C2 (stereo partly drawn)		inconclusive: 14.6 µM [activator, partial curve]
CC1Cc2ccccc2N1C(=O)CSc1nnc(Cn2nnc3ccccc32)n1C (stereo not drawn)	inactive	
CCOC(=O)N1CCN(c2cc(NCCO)c([N+](=O)[O-])c3nonc23)CC1	inconclusive: 11.5%	
CC(C)c1cc(N2CCOCC2)n2ncc(-c3ccccc3)c2n1	inconclusive: 33%	
O=C(O)C1CC=CCC1C(=O)NCCc1csc(-c2ccccc2)n1 (stereo not drawn)	inconclusive: 1.6%	
O=c1c2[nH]c3ccc(F)cc3c2ncn1Cc1ccncc1	inactive	
CC12CCC(=O)N1C(C(=O)OCC(=O)Nc1cccc(Br)c1)CS2 (stereo not drawn)	inconclusive: -25.2%	
CCOc1ccc(CCNC(=O)C(C)n2nc(C)c3c(C)n(-c4ccccc4)nc3c2=O)cc1 (stereo not drawn)		inconclusive: 18.4 µM [falling, single point]
CCn1c(SCC(=O)Nc2nnc(C)s2)nnc1C(C)NC(=O)c1ccccc1 (stereo not drawn)	inconclusive: 74.1%	
CCN(CC)CCSc1nnc2c3ccccc3n(Cc3ccccc3)c2n1	inconclusive: 21.6%	
CCC1CCc2c(n(C)c3ccccc3c2=O)O1 (stereo not drawn)	inconclusive: 28.1%	
O=C(c1ccc(CS(=O)(=O)c2ccc(Br)cc2)o1)N1CCN(c2ccccn2)CC1	inconclusive: -11.2%	
Cc1ccc(CSc2nc3c(c(SCC(=O)O)n2)CCCC3)cc1	inconclusive: -13.4%	
Cc1nn(Cc2cccc(C(=O)Nc3ccn(Cc4ccccc4)n3)c2)c(C)c1[N+](=O)[O-]		inconclusive: 6.51 µM [rising, single point]
CCCN(C(=O)C1CC(=O)N(c2ccccc2C(C)CC)C1)C1CCS(=O)(=O)C1 (stereo not drawn)	inconclusive: 10.7%	
COc1cc(O)oc1C=Nc1ccc(C(=O)O)cc1	inconclusive: -3.05%	
O=C(Nc1ccccc1F)C1CCCN1S(=O)(=O)c1ccc(Cl)cc1 (stereo not drawn)		inconclusive: 0.92 µM [falling, full curve, poor fit]
CC1CCN(S(=O)(=O)c2ccc3c(c2)N(CC(=O)NCc2cccnc2)C(=O)CS3)CC1	inconclusive: 14.4%	
FC(F)(F)c1ccccc1NC(=S)N1CCN(c2ncccn2)CC1		inconclusive: 25.9 µM [activator, partial curve, poor fit]
C/C(CC(=O)Nc1ccc2c(c1)OCCO2)=N\NC(=O)c1ccccn1	inconclusive: 3.58%	
Cc1ccc(S(=O)(=O)N2CCCC(C(=O)N3CCN(C)CC3)C2)cc1 (stereo not drawn)	inconclusive: 19.6%	
Cc1ccc(-n2c(C)cc(C(=O)COC(=O)c3c(C)noc3C)c2C)cc1	inconclusive: -47.9%	
COc1cccc(-n2c(SCC(=O)NCC3CCCO3)nc3c([nH]c4ccccc43)c2=O)c1 (stereo not drawn)		inconclusive: 18.4 µM [falling, single point]
CCCOn1c(OCC(C)C)nc2ccccc2c1=O	inconclusive: 5.45%	
Cc1nc(/C=[N+](\[O-])C(C)(C)/C=N/O)n(O)c1C		inconclusive: 29.1 µM [falling, single point]

Random excerpt: four records from the list, in no set order.
SMILES	lipid storage change, negative = inhibition	Potency
COc1cc(O)oc1C=Nc1ccc(C(=O)O)cc1	inconclusive: -3.05%	
Cc1ccc(-n2c(C)cc(C(=O)COC(=O)c3c(C)noc3C)c2C)cc1	inconclusive: -47.9%	
O=C(Nc1ccccc1F)C1CCCN1S(=O)(=O)c1ccc(Cl)cc1 (stereo not drawn)		inconclusive: 0.92 µM [falling, full curve, poor fit]
CCN(CC)CCSc1nnc2c3ccccc3n(Cc3ccccc3)c2n1	inconclusive: 21.6%	

Remaining list, next part

SMILES	lipid storage change, negative = inhibition	Potency
CCOC(=O)c1ccc2[nH]c3c(c2c1)CCCC3	inconclusive: -100%	
COC(=O)C(C)n1cnc2c(nnn2Cc2ccc(Cl)cc2)c1=O (stereo not drawn)	inconclusive: -1.39%	
O=C(CNC(=O)c1cc(S(=O)(=O)N2CCCCC2)ccc1N1CCOCC1)Nc1ccc(F)c(F)c1	inconclusive: 24.8%	
COCCCNc1nc(-c2ccc(Cl)cc2)nc2ccccc12	inactive	
Cc1ccc(CN2CC(C(=O)OCc3ccccc3Cl)CC2=O)cc1 (stereo not drawn)	inconclusive: 3.99%	
Clc1ccc(-c2nnc3sc(Cc4cccs4)nn23)c(Cl)c1	inconclusive: 12.7%	
O=C(Nc1ccc(NC(=O)c2ccco2)cc1)c1ccco1	inconclusive: 62.2%	
O=C1CSC(=S)N1/N=C/c1cc(Br)ccc1O	inconclusive: 110%	
COc1cccc(NC(=O)COC(=O)c2nc(Cl)ccc2Cl)c1	inconclusive: 12.3%	
COc1cc2c(cc1NC(=O)COC(=O)[C@@H](NC(=O)c1ccccc1F)C(C)C)oc1ccccc12	inconclusive: -25.6%	
COC(=O)c1sc(C(C)(C)C)cc1CSc1ccccc1	inconclusive: 5.6%	
Cn1c(=O)n(C)c2cc(NC(=O)c3cc4ccccc4o3)ccc21		inconclusive: 0.164 µM [activator, full curve, poor fit]
COC(=O)c1ccc(CNC(=O)C(NC(=O)c2ccco2)C(C)C)cc1 (stereo not drawn)		inconclusive: 29.1 µM [activator, single point]
O=C(N/N=C/c1ccccn1)c1ccc([N+](=O)[O-])cc1	inconclusive: -32%	
CC(C)C(C(=O)NCc1ccco1)N(CC1CCCO1)C(=O)CNS(=O)(=O)c1ccc(F)cc1 (stereo not drawn)		inconclusive: 0.58 µM [activator, partial curve]
Cc1ccccc1C(=O)Nc1cccc(N)c1	inconclusive: -62.1%	
CN1C(=O)S/C(=C/c2ccc(OCc3cccc(C(=O)O)c3)cc2)C1=O	inconclusive: 13.5%	
COc1ccc(-c2cc(C)no2)cc1S(=O)(=O)Nc1cccc(CN2CCCC2)c1	inconclusive: 2.99%	
CCOC(=O)N1CCN(C(=O)c2ccc(NS(=O)(=O)c3ccc4[nH]c(=O)[nH]c4c3)cc2)CC1	inconclusive	
Cc1ccc(C(=O)OCC(=O)N2CCOCC2)c(C)c1		inconclusive: 0.13 µM [falling, full curve, poor fit]
COc1cc([N+](=O)[O-])ccc1NC(=O)Nn1cnnc1	inconclusive: 12.9%	
Cc1c(C#N)c(N=CN(C)C)c(C(=O)c2ccc(Br)cc2)n1-c1ccccc1	inconclusive: 38.9%	
Cc1ccc(-n2c(SCC(=O)NCCC3=CCCCC3)nc3n[nH]c(C)c3c2=N)cc1Cl	inconclusive: -149%	
COC(=O)c1cc(COC(=O)c2cccnc2SC)oc1C		inconclusive: 29.1 µM [activator, single point]
CSc1ncccc1C(=O)NCCc1ccccc1	inconclusive: 3.67%	
Cc1ccc(C2=NN(C(=O)CCC(=O)O)C(c3cccc([N+](=O)[O-])c3)C2)cc1 (stereo not drawn)		inconclusive: 29.1 µM [falling, single point]
